Results from PubChem BioAssay AID504834 (National Center for Advancing Translational Sciences (NCATS), 2011).
Among all 320,000 compounds or so, about 22,000 (6.9%) were called active. The shares of active, inactive and inconclusive entries below differ from those in the screen. Calls come from the whole dose curve; as a rule, active = well fitted inhibition curve with a large enough effect; inconclusive = small, poorly fitted or top-dose-only effect, or another doubt; inactive = no such curve, though single readings can be large or run the other way. A potency beside an inconclusive call is a rough fit, not a confirmed value.

assay: Primary qHTS for delayed death inhibitors of the malarial parasite plastid, 96 hour incubation; settings: P. falciparum luciferase reporter growth; series mostly up to 28.7 µM; activity change, negative = inhibition: at the top concentration
Method in brief: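 Compounds incubated with erythrocytes infected by luciferase-expressing P. falciparum (2% hematocrit, 0.05% parasitemia final) for 96 hours, 37 C in 5% CO2. Growth inhibition scored as decreased luciferase luminescence.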
% is set by controls: 0 for no effect and ±100 for the full control effect; potency is the fitted concentration of half-maximal effect.

Structure (SMILES) | Potency | activity change, negative = inhibition
O=C(C1CCCN(S(=O)(=O)c2cccc3nonc23)C1)N1CCN(c2cccc(Cl)c2)CC1 (configuration not stated) | active: 7.38 µM | 
CCCCN(C(=O)c1ccc2ccccc2c1)c1c(N)n(CCCC)c(=O)[nH]c1=O | inconclusive: 11.7 µM [inhibitor, partial curve, poor fit] | 
COc1ccc(NC(=O)CSc2nc(=O)n(CCN3CCOCC3)c3c2CCC3)c(OC)c1 | inconclusive: 20.8 µM [inhibitor, partial curve, poor fit] | 
COc1cccc(CN(C)C(=O)c2ccc(OCC(=O)Nc3cccc(C(F)(F)F)c3)c(OC)c2)c1 | inconclusive: 13.1 µM [inhibitor, single point] | 
CC1=CC(C)(C)N(C(=O)Nc2ccccc2)c2ccccc21 | inconclusive: 10.4 µM [inhibitor, single point] | 
CCc1ccc(NC(=O)c2cc(-c3cccs3)on2)cc1 |  | inactive: -15%
CNC(=O)[C@H]1O[C@@H](n2cnc3c(NCc4cccc(I)c4)ncnc32)[C@H](O)[C@@H]1O | inconclusive: 10.4 µM [inhibitor, single point] | 
O=S1(=O)[C@H]2C[C@@H]3C=C[C@@]2(CN1Cc1ccc(Cl)cc1)O3 | inconclusive: 18.5 µM [inhibitor, single point] | 
CCC(C)N(C(=O)CSc1nnnn1-c1ccccc1OC)C1CCS(=O)(=O)C1 (configuration not stated) | inconclusive: 18.5 µM [inhibitor, single point] | 
O=C(/C=C/c1ccc(Cl)cc1)N1CCN(c2ccc([N+](=O)[O-])c(N3CCOCC3)c2)CC1 | active: 10.4 µM | 
COc1ccccc1N1CCN(C(=O)c2ccc(COc3cccc4c3OC(C)(C)C4)cc2)CC1 | inconclusive: 13.1 µM [inhibitor, partial curve] | 
CCOc1ccc(NC(=O)C2CCN(S(=O)(=O)c3ccc4c(c3)N(C(C)=O)CCO4)CC2)cc1 | inconclusive: 10.4 µM [inhibitor, partial curve] | 
COc1ccc(C2=CC3=C(Br)C(=O)C(C)(O)C(=O)C3=CO2)cc1 (configuration not stated) |  | inactive: 29.1%
COC(=O)CNC(c1ccccc1)c1cc(Br)ccc1NC(=O)OCc1ccccc1 (configuration not stated) | inconclusive: 2.33 µM [inhibitor, partial curve, poor fit] | 
CC1=C([N+](=O)[O-])C(c2ccccc2)NC(=O)N1 (configuration not stated) | inconclusive: 11.7 µM [inhibitor, single point] | 
CCc1c(C)nc(N2CCN(c3ccccc3)CC2)[nH]c1=O | inconclusive: 18.5 µM [inhibitor, single point] | 
CN(C)c1ccc(CNS(=O)(=O)c2ccc3c(c2)NC(=O)CS3)cc1 | inconclusive: 11.7 µM [inhibitor, single point] | 

Reprinted at random: two records from the list, in no set order.
Structure (SMILES) | Potency | activity change, negative = inhibition
CCC(C)N(C(=O)CSc1nnnn1-c1ccccc1OC)C1CCS(=O)(=O)C1 (configuration not stated) | inconclusive: 18.5 µM [inhibitor, single point] | 
COc1cccc(CN(C)C(=O)c2ccc(OCC(=O)Nc3cccc(C(F)(F)F)c3)c(OC)c2)c1 | inconclusive: 13.1 µM [inhibitor, single point] | 
